{"sequences": {"note": "Protein sequences, listed by entry. Tags and fused reporters are not part of them.", "UniProt Q8BX22": "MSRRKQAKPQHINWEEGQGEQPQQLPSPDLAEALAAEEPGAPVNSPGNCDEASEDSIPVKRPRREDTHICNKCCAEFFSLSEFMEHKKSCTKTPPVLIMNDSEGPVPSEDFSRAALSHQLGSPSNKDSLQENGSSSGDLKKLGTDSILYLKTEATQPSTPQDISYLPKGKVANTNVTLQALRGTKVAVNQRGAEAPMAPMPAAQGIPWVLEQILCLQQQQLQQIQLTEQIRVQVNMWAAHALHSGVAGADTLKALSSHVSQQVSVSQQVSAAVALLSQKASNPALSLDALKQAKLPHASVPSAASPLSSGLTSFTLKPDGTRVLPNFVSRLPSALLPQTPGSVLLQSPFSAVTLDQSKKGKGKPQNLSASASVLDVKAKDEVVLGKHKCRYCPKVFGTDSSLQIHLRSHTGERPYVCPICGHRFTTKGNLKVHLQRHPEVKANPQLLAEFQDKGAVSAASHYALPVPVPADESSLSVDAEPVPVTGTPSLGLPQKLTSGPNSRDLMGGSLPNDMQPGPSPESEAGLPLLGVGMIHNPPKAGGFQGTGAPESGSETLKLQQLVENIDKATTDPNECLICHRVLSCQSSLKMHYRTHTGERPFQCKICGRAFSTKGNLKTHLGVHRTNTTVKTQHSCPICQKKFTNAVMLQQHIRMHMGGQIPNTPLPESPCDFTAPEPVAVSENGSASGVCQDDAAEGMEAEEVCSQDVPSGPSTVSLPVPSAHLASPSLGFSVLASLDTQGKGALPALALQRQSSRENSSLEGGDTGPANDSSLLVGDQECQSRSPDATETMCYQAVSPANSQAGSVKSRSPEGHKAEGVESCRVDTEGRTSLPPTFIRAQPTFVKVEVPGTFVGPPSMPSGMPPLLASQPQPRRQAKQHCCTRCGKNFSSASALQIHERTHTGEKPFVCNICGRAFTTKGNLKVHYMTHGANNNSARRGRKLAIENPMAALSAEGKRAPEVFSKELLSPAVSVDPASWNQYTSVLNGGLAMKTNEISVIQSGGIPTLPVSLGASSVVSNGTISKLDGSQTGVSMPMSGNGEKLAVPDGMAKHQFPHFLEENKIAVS"}, "source": "paper doi:10.1101/2025.11.14.688441", "binders": {"B1": {"name": "SALL1 (protein, UniProt Q9ER74 1-1322)", "chain": "MSRRKQAKPQHFQSDPEVASLPRRDGDTEKGQPSRPTKSKDAHVCGRCCAEFFELSDLLLHKKSCTKNQLVLIVNESPASPAKTFPPGPSLNDPDDQMKDAANKADQEDCSDLSEPKGLDREESMEVEVPVATTTTTTTGGSGGSGGSTLSGVTNITTPSCHSGCSSGTSAITTSLPQLGDLTTLGNFSVINSNVIIENLQSTKVAVAQFSQEARCGGASGGKLLISTLMEQLLALQQQQIHQLQLIEQIRHQILLLASQSADLPAAPSIPSQGTLRTSANPLTTLSSHLSQQLAVAAGLAQSLASQSANISGVKQLPHVQLPQSSSGTSIVPPSGGTSPNMSIVTAAVPTPSSEKVASNAGASHVSSPAVSASSSPAFAISSLLSPESNPLLPQPTPANAVFPTPLPNIATTAEDLNSLSALAQQRKSKPPNVTAFEAKSTSDEAFFKHKCRFCAKVFGSDSALQIHLRSHTGERPFKCNICGNRFSTKGNLKVHFQRHKEKYPHIQMNPYPVPEHLDNVPTSTGIPYGMSIPSEKPVTSWLDTKPVLPTLTTSVGLPLPPTLPSLTPFIKTEEPAPIPISHSAASPQGSVKSDSGAPDLATRNPSGVPEEVEGSAVPPFGGKGEESNMASSAVPTAGNSTLNSPVADGGPGGTTFTNPLLPLMSEQFKAKFPFGGLLDSAQASETSKLQQLVENIDKKATDPNECIICHRVLSCQSALKMHYRTHTGERPFKCKICGRAFTTKGNLKTHYSVHRAMPPLRVQHSCPICQKKFTNAVVLQQHIRMHMGGQIPNTPVPDNYPESMESDTGSFDEKNFDDLDNFSDENMEECPEGSIPDTPKSADASQDSLSSSPLPLEMSSIAALENQMKMINAGLAEQLQASLKSVENGSMEGDVLTNDSSSVGGDMESQSAGSPAISESTSSMQALSPSNSTQEFHKSPGMEEKPQRVGPGEFANGLSPTPVNGGALDLTSSHAEKIIKEDSLGILFPFRDRGKFKNTACDICGKTFACQSALDIHYRSHTKERPFICTVCNRGFSTKGNLKQHMLTHQMRDLPSQLFEPSSNLGPNQNSAVIPANSLSSLIKTEVNGFVHVSPQDSKDAPTSHVPQGPLSSSATSPVLLPALPRRTPKQHYCNTCGKTFSSSSALQIHERTHTGEKPFACTICGRAFTTKGNLKVHMGTHMWNSTPARRGRRLSVDGPMTFLGGNPVKFPEMFQKDLAARSGSGDPSSFWNQYTAALSNGLAMKANEISVIQNGGIPPIPGSLGSGSSPISGLTGNVEKLGNSEPSAPLAGLEKMASSENGTNFRFTRFVEDSKEIVTS"}}, "biological_target": "SALL4 (wild-type, endogenous in mouse embryonic stem cells) (mouse (endogenous in E14Ju09 ESCs)) (UniProt Q8BX22)", "test": "co-IP", "note": "Results are given in words; binding and its absence hold for the method and conditions named. Binding seen in cells or lysates may run through a third protein. Some results given as binding are weak or reduced against the parent protein; the word gives no strength."}
{"binder": "B1", "values": [{"measurement": "binding", "result": "binds"}]}
